# Patent publication US9434718B2, “TOFA analogs useful in treating dermatological disorders or conditions” (Dermira (Canada), Inc., priority 2009, dated 2016)
# Tested on: hamster ear sebaceous glands
# Assay: Hamster ear sebaceous gland model, repeat topical application
# Format: in vivo, Syrian golden hamster
# Conditions: 21 consecutive days, 75 mM, ear cross-sections (FIG. 3)
# Description: The Syrian golden hamster ([…]) ear sebaceous gland model was used to evaluate the effect of repeat application of TOFA and TOFA analogs. Male animals were employed since they have larger sebaceous glands than females a consequence of their higher endogenous levels of androgenic hormones. To define compound effects, cross-sections prepared from hamster ears were treated with the neutral lipid-specific stain Oil Red O. Staining results were compared to the untreated ear of the same animal in order to account for any changes in the overall physiological state of the animal as well as potential systemic effects stemming from local drug application.
# Typically, compounds were prepared and applied in 40% dimethyl acetamide (DMA)/30% acetone/30% ethanol (vehicle). […] Animals were evaluated daily for general appearance and potential clinical signs related to treatment such as edema, erythema, discoloration or other changes to the ears. Hamsters were also assessed for general health by coat appearance, behavior, and activity level. […]
# To assess sebaceous gland status, ear cross-sections were initially cut at a thickness of approximately 8 μm onto glass slides and immediately fixed with 10% buffered formalin. […] Relative sebaceous gland areas (red staining areas) were determined using Image-Pro software (Media Cybernetics Inc., Silver Spring, Md.). […]
smiles,measurement,value
"CCCCCCCCCCCCCCOc1ccc(C(=O)OCC(F)(F)F)o1 [Compound A, 2,2,2-trifluoroethyl 5-(tetradecyloxy)furan-2-carboxylate]",epidermal thickness in comparison to vehicle-treated controls,greater
"CCCCCCCCCCCCCCOc1ccc(C(=O)O)o1 [TOFA, 5-(tetradecyloxy)-2-furancarboxylic acid]",epidermal thickness in comparison to vehicle-treated controls,greater
